“And” between values parts separate entries of the source, which are not always exact repeats. Equal entries are not always repeated. Structures can show the parent of a compound that is named as a salt. ± gives the standard deviation of the averaged measurements. Some of the results follow. Single values are uncertain here, since repeats match poorly.
tested on: A549; assay: surface PD-L1 immunofluorescence intensity relative to IFN-gamma-only control (ratio); higher = more PD-L1 expression; conditions: 10 µM; exposure time 24 h; IFN-gamma 100 ng/mL

Row | SMILES | surface PD-L1 immunofluorescence intensity
1 | Oc1c2ccccc2c2c3c(cccc13)N=N2 | 1.03 and 1
2 | Nc1nc(=O)c2c([nH]1)NC[C@@H](CNc1ccc(C(=O)N[C@@H](CCC(=O)O)C(=O)O)cc1)N2C=O [Folinic acid calcium salt] | 1.02
3 | COc1ccc2cc([C@@H](C)C(=O)O)ccc2c1 [(R) -Naproxen sodium salt] | 0.944
4 | CC(C)NCC(O)COc1cccc2ccccc12 (centres undefined) [Propranolol hydrochloride] | 0.996
5 | Cc1nc(NC(=O)N2CCC[C@H]2C(N)=O)sc1-c1ccnc(C(C)(C)C(F)(F)F)c1 | 0.891
6 | Cc1c[nH]c(=O)n(CCCN2CCN(c3ccccc3OCC(F)(F)F)CC2)c1=O | 0.959
7 | O=C1CCc2cc(OCCCCc3nnnn3C3CCCCC3)ccc2N1 [Cilostazol] | 1.04 ± 0.1
8 | N#C[C@@H]1C[C@@H]2C[C@@H]2N1C(=O)[C@@H](N)C12CC3CC(CC(O)(C3)C1)C2 | 0.914
9 | CCS(=O)(=O)CCn1c([N+](=O)[O-])cnc1C [Tinidazole] | 1.05
10 | C[C@H](CC[C@@H]1OC1(C)C)[C@H]1CC[C@H]2[C@@H]3CC=C4C[C@@H](O)CC[C@]4(C)[C@H]3CC[C@]12C [24(S),25-Epoxycholesterol] | 1.14
11 | CCCCOc1cc(C(=O)NCCN(CC)CC)c2ccccc2n1 [Dibucaine] | 0.887
12 | Oc1ccc(-c2nc3cc(O)cc(Br)c3o2)cc1 | 0.914
13 | O=P(O)(O)C(Cl)(Cl)P(=O)(O)O [Clodronate] | 0.998
14 | Cc1coc2c1C(=O)C(=O)c1c-2ccc2c(C)cccc12 [Tanshinone I] | 1.03
15 | Cc1ccccc1-n1c(Cn2nc(-c3cccc(O)c3)c3c(N)ncnc32)nc2cccc(C)c2c1=O | 0.998
16 | CCC1=C(C)CN(C(=O)NCCc2ccc(S(=O)(=O)NC(=O)N[C@H]3CC[C@H](C)CC3)cc2)C1=O [Glimepiride] | 0.969 ± 0.034
17 | Nc1ncnc2c1ncn2[C@@H]1O[C@H](COP(=O)(O)OP(=O)(O)OP(=O)(O)O)[C@@H](O)[C@H]1O [ATP (Adenosine-Triphosphate)] | 1.11
18 | CC(C)Oc1ccc2c(=O)c3cc(C(=O)O)ccc3oc2c1 | 1.01
19 | CC(=O)N[C@H]1[C@H]([C@H](O)[C@H](O)CO)OC(C(=O)O)=C[C@@H]1NC(=N)N [Zanamivir (Relenza)] | 0.952
20 | Cc1c(C(=O)NN2CCOCC2)nn(-c2ccc(Cl)cc2Cl)c1-c1ccc(I)cc1 | 1
21 | O=C(c1cc(O)c(O)c(O)c1)c1ccc(O)c(O)c1O [Exifone] | 1.01
22 | CCN1CC(CCN2CCOCC2)C(c2ccccc2)(c2ccccc2)C1=O (centres undefined) [Doxapram HCl] | 1.06
23 | CN(C)Cc1cccc(N/C(=C2\C(=O)Nc3cc(C(N)=O)ccc32)c2ccccc2)c1 | 1.08
24 | O=C(O)Cc1sc(-c2ccccc2)nc1-c1ccc(Cl)cc1 [Fentiazac] | 1.02
25 | CC(=O)OCC(=O)[C@@]12N=C(C)O[C@@H]1C[C@H]1[C@@H]3CCC4=CC(=O)C=C[C@]4(C)[C@H]3[C@@H](O)C[C@@]12C [Deflazacort (Calcort)] | 0.872

Row | SMILES | surface PD-L1 immunofluorescence intensity
26 | CC(=O)OCC(=O)[C@@]12N=C(C)O[C@@H]1C[C@H]1[C@@H]3CCC4=CC(=O)C=C[C@]4(C)[C@H]3[C@@H](O)C[C@@]12C [Deflazacort] | 0.889
27 | C#CCN1C(C)=C(C(=O)OC)C(c2cccc([N+](=O)[O-])c2)C(C(=O)OCC)=C1C (centres undefined) | 0.962
28 | OCc1cc(C(O)CNCCCCCCOCCCCc2ccccc2)ccc1O (centres undefined) [Salmeterol] | 0.982 ± 0.026
29 | Cc1nc2n(c(=O)c1CCN1CCC(c3noc4cc(F)ccc34)CC1)CCCC2 [Risperidone] | 1.04
30 | CNCCC(Oc1ccc(C(F)(F)F)cc1)c1ccccc1 (centres undefined) [Fluoxetine hydrochloride] | 1.04 ± 0.043
31 | C[C@@H](CN1CC(=O)NC(=O)C1)N1CC(=O)NC(=O)C1 [Dexrazoxane HCl] | 1.01
32 | COc1ccc(Nc2ncnc3ccc(OC)cc23)cc1 [MPMQ hydrochloride] | 0.888
33 | O=S(=O)(O)CCS [Mesna] | 1.07
34 | CCn1cc(C(=O)O)c(=O)c2cnc(N3CCCC3)nc21 [Piromidic acid] | 1.08
35 | CC(C)(C)NC[C@H](O)c1ccc(O)c(CO)c1 [Levalbuterol hydrochloride] | 1.03
36 | CCCCNC(=O)NS(=O)(=O)c1ccc(C)cc1 [Tolbutamide] | 0.894 ± 0.046
37 | C[C@@H]1O[C@@H](O[C@H]2[C@H](Oc3cc(O)c(C(=O)CCc4ccc(O)cc4)c(O)c3)O[C@H](CO)[C@@H](O)[C@@H]2O)[C@H](O)[C@H](O)[C@H]1O [Naringin Dihydrochalcone (Naringin DC)] | 1.05
38 | c1ccc2c(-c3ccncc3)c[nH]c2c1 [Rockout] | 1.04
39 | CCOC(=O)OC(C)OC1=C(C(=O)Nc2ccccn2)N(C)S(=O)(=O)c2ccccc21 (centres undefined) [Ampiroxicam] | 1.01
40 | O=C(Nc1c(Cl)cncc1Cl)c1ccc(OC(F)F)c(OCC2CC2)c1 [Roflumilast (Daxas)] | 1.07
41 | CCCS(=O)(=O)Nc1ccc(F)c(C(=O)c2c[nH]c3ncc(-c4ccc(Cl)cc4)cc23)c1F [Vemurafenib (PLX4032)] | 1.13 ± 0.037
42 | NC(=O)c1ncn([C@@H]2O[C@H](CO)[C@@H](O)[C@H]2O)n1 [Ribavirin] | 1.06
43 | NC(=O)c1ncn([C@@H]2O[C@H](CO)[C@@H](O)[C@H]2O)n1 [Ribavirin (Copegus)] | 0.998
44 | CCC(CC)(CC(=O)Nc1cccc(/C=C/c2nc(C3CCC3)cs2)c1)C(=O)O [Cinalukast] | 0.954
45 | CCOc1ccc2c(c1)C(C)=CC(C)(C)N2 [Ethoxyquin] | 0.992 ± 0.083
46 | CCOC(=O)[C@H](CCc1ccccc1)N[C@@H](C)C(=O)N1[C@H](C(=O)O)C[C@@H]2CCC[C@@H]21 [Ramipril] | 1.01
47 | CCOC(=O)[C@H](CCc1ccccc1)N[C@@H](C)C(=O)N1[C@H](C(=O)O)C[C@@H]2CCC[C@@H]21 [Ramipril (Altace)] | 1.08
48 | CNC(=O)c1ccc(-c2cnc3ncc(Cc4ccc5ncccc5c4)n3n2)cc1F | 0.877
49 | Cc1ccc(S(=O)(=O)n2c(N)nc3ccccc32)cc1 | 0.992

From entry 20 as far as 23, as listed above:
Row | SMILES | surface PD-L1 immunofluorescence intensity
20 | Cc1c(C(=O)NN2CCOCC2)nn(-c2ccc(Cl)cc2Cl)c1-c1ccc(I)cc1 | 1
21 | O=C(c1cc(O)c(O)c(O)c1)c1ccc(O)c(O)c1O [Exifone] | 1.01
22 | CCN1CC(CCN2CCOCC2)C(c2ccccc2)(c2ccccc2)C1=O (centres undefined) [Doxapram HCl] | 1.06
23 | CN(C)Cc1cccc(N/C(=C2\C(=O)Nc3cc(C(N)=O)ccc32)c2ccccc2)c1 | 1.08

Source: the supplement of paper PMC8732350
